Binding signal data for one sequence are collected here from PMC5996148.

Some of the results follow.

Among the test systems are C1orf38 (human); C1orf91 (human); C20orf114 (human); C20orf142 (human); C20orf160 (human); C20orf3 (human); C20orf70 (human); C21orf51 (human); C21orf7 (human); C21orf84 (human).
What all share (assay): protein microarray (ProtoArray v5.0), streptavidin-Alexa Fluor 647
What all share (conditions): 3'-biotin; 20 mM Tris (pH 7.5), 5 mM MgCl2, 100 mM KCl, 0.1% Tween-20, A/T-rich and random oligonucleotide blockers; temperature not stated; high values mean tight binding

“GGTGACAGGGGTATGGGGAGGGG [G4-2 biotinylated (Ct1)]”: the binding signal with C1orf38 (human) is -0.363 z-score; with C1orf91 (human), -0.382 z-score; in the assay with C20orf114 (human), -0.384 z-score; with C20orf142 (human), -0.383 z-score; in the assay on C20orf160 (human), -0.383 z-score; with C20orf3 (human), -0.384 z-score. Besides, the binding signal is -0.365 z-score in the assay with C20orf70 (human), -0.386 z-score in the assay with C21orf51 (human), -0.385 z-score in the assay with C21orf7 (human) and -0.382 z-score with C21orf84 (human).
